Measured values published in doi:10.1101/2020.08.12.247809.
Results are given in words; binding and its absence hold for the method and conditions named. Binding seen in cells or lysates may run through a third protein. Some entries that bind do so weakly or less than the wild type. Where a sequence is shown, tags or fusion partners need not be part of it.

Legend:
Assay in all cases: pull-down
[1] = biological target: T1, Flag-Strep-tagged KIAA1841▵SANT (mouse) (UniProt Q68FF0)
T1 sequence: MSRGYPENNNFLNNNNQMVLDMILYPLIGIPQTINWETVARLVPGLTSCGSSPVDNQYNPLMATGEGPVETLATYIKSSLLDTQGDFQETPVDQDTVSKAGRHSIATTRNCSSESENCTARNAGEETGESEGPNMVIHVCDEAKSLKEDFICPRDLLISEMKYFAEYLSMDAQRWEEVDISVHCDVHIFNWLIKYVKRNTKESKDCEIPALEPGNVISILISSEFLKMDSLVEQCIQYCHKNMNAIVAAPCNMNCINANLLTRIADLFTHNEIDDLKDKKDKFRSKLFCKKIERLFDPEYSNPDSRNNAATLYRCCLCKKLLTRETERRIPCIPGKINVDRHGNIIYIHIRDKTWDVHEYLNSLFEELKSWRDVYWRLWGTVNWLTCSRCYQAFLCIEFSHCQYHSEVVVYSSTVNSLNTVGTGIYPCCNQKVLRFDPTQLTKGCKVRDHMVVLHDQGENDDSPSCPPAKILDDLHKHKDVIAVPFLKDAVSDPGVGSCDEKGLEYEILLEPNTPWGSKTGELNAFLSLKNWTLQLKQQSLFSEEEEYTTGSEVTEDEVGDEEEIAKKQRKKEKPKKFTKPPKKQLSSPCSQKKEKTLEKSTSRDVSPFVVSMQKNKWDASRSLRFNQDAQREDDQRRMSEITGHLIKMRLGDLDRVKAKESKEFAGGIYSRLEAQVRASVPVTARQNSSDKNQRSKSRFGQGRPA

[2] = biological target: T2, Flag-Strep-tagged KIAA1841▵BTB (mouse) (UniProt Q68FF0)
T2 sequence: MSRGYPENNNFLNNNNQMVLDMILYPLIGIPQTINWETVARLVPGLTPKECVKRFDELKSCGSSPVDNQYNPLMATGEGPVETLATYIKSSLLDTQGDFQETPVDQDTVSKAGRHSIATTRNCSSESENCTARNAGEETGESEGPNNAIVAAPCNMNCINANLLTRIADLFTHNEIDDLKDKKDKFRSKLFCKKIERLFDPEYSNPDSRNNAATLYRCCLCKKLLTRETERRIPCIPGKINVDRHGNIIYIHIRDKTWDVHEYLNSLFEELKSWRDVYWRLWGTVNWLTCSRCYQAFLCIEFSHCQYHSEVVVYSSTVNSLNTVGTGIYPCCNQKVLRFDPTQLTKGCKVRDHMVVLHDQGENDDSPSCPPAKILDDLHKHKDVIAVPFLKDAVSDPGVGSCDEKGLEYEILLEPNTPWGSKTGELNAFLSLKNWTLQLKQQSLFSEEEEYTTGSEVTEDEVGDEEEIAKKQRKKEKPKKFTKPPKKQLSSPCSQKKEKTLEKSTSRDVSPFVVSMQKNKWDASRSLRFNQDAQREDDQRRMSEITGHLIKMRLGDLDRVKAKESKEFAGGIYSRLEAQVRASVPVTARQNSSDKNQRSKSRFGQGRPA

[3] = biological target: T3, Flag-Strep-KIAA1841(WT) (mouse) (UniProt Q68FF0)
T3 sequence: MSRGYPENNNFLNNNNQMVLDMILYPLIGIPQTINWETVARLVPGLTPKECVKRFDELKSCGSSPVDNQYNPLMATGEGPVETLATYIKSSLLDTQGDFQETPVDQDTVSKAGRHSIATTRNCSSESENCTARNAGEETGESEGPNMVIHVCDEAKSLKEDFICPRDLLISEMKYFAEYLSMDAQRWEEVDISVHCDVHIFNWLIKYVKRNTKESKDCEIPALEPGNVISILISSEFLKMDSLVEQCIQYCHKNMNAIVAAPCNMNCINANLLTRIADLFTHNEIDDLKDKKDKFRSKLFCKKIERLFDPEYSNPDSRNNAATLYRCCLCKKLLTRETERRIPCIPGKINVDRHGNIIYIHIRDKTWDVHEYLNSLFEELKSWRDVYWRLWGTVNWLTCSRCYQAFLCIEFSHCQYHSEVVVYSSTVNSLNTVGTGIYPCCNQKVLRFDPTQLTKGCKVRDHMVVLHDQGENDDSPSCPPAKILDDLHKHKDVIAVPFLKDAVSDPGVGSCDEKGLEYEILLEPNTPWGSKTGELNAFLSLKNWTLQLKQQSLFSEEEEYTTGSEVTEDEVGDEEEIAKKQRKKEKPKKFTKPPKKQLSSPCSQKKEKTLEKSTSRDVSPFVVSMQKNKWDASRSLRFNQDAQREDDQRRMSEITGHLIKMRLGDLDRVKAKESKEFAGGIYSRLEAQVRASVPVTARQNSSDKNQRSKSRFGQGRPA

Measured: binding

B1: GFP-KIAA1841 (protein, UniProt Q68FF0-1 1-718)
chain: MSRGYPENNNFLNNNNQMVLDMILYPLIGIPQTINWETVARLVPGLTPKECVKRFDELKSCGSSPVDNQYNPLMATGEGPVETLATYIKSSLLDTQGDFQETPVDQDTVSKAGRHSIATTRNCSSESENCTARNAGEETGESEGPNMVIHVCDEAKSLKEDFICPRDLLISEMKYFAEYLSMDAQRWEEVDISVHCDVHIFNWLIKYVKRNTKESKDCEIPALEPGNVISILISSEFLKMDSLVEQCIQYCHKNMNAIVAAPCNMNCINANLLTRIADLFTHNEIDDLKDKKDKFRSKLFCKKIERLFDPEYSNPDSRNNAATLYRCCLCKKLLTRETERRIPCIPGKINVDRHGNIIYIHIRDKTWDVHEYLNSLFEELKSWRDVYWRLWGTVNWLTCSRCYQAFLCIEFSHCQYHSEVVVYSSTVNSLNTVGTGIYPCCNQKVLRFDPTQLTKGCKVRDHMVVLHDQGENDDSPSCPPAKILDDLHKHKDVIAVPFLKDAVSDPGVGSCDEKGLEYEILLEPNTPWGSKTGELNAFLSLKNWTLQLKQQSLFSEEEEYTTGSEVTEDEVGDEEEIAKKQRKKEKPKKFTKPPKKQLSSPCSQKKEKTLEKSTSRDVSPFVVSMQKNKWDASRSLRFNQDAQREDDQRRMSEITGHLIKMRLGDLDRVKAKESKEFAGGIYSRLEAQVRASVPVTARQNSSDKNQRSKSRFGQGRPA
binds: all assays above
